Results: the supplement of paper PMC10849652
Some of the results follow.

By UniProt entry, the sequences of proteins in these tests, tags left out. Where a name states a change or a piece, a line headed by the entry shows the natural chain unless it says otherwise.
UniProt P57088: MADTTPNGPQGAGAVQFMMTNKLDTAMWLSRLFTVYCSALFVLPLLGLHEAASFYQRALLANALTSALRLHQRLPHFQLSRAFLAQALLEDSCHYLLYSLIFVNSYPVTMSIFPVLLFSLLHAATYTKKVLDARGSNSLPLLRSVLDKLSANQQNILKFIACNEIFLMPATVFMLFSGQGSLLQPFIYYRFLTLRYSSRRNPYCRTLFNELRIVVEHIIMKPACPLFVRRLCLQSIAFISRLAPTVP
UniProt Q92547, whole entry, looked up: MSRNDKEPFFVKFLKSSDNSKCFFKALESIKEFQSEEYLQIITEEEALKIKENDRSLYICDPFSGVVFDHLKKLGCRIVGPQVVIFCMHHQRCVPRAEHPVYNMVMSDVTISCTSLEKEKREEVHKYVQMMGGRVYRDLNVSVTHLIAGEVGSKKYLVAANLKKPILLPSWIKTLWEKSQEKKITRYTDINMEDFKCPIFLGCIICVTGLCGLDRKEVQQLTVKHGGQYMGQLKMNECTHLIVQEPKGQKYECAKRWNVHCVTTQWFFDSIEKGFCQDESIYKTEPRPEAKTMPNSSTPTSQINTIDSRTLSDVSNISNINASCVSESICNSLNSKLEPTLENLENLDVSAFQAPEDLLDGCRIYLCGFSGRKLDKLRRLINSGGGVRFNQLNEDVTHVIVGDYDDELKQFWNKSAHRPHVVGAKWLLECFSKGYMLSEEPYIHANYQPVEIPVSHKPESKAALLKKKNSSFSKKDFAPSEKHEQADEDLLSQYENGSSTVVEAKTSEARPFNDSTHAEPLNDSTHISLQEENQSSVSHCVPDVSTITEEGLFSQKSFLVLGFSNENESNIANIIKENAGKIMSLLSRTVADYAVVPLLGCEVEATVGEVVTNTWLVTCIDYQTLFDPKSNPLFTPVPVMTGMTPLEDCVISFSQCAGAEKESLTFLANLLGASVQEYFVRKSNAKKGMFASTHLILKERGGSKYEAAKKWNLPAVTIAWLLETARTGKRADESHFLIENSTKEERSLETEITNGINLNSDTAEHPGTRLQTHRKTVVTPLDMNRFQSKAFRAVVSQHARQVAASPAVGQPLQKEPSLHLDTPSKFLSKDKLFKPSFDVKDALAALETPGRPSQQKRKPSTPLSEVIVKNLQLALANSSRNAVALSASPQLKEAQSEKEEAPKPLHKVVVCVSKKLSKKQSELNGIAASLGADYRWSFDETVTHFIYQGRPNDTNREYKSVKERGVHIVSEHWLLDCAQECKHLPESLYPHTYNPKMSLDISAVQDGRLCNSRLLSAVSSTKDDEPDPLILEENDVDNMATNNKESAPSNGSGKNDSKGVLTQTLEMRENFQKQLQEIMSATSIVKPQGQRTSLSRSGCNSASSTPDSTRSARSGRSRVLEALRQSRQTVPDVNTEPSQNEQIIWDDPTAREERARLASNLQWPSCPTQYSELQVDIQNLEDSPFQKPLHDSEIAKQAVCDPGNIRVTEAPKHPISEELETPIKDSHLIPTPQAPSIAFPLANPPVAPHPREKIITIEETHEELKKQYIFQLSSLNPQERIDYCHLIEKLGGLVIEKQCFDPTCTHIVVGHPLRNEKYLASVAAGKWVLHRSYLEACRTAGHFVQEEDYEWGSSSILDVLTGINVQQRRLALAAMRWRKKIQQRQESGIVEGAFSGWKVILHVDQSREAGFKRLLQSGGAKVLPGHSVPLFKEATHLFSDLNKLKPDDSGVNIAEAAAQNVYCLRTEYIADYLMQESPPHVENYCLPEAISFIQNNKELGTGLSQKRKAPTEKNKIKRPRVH
UniProt Q9H3N1: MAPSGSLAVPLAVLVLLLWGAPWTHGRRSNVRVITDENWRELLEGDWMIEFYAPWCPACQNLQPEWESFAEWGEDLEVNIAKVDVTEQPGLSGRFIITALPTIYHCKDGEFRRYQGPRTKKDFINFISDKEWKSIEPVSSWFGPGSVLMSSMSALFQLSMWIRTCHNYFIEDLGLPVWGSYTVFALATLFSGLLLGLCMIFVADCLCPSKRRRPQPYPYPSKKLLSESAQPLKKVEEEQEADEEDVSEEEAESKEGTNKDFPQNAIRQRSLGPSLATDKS
UniProt Q96S44: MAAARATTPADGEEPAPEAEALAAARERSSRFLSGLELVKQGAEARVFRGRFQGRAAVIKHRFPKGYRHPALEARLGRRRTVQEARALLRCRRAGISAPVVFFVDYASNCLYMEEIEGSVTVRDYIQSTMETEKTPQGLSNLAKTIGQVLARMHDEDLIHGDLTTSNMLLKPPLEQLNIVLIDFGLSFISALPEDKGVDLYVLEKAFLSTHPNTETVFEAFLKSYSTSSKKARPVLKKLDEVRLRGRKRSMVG
UniProt O96008: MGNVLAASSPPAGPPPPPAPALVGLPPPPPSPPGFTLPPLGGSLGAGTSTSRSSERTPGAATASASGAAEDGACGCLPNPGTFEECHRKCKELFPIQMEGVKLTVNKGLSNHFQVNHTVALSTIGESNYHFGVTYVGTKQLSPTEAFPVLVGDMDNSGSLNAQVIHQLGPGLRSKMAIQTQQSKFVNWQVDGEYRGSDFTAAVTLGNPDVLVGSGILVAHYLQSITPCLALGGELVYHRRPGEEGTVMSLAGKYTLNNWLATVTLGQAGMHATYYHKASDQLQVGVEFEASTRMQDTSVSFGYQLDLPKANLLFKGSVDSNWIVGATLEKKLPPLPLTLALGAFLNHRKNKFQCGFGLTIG
UniProt Q9P0U1: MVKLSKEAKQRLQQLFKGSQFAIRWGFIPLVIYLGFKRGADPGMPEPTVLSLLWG
UniProt Q6PI78: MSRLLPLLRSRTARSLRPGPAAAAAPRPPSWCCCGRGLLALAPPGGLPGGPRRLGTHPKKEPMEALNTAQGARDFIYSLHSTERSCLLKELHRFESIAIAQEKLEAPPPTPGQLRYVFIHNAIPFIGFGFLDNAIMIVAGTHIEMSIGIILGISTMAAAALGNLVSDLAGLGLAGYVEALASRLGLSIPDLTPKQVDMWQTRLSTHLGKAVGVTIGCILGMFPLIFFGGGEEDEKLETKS
UniProt Q5SWH9: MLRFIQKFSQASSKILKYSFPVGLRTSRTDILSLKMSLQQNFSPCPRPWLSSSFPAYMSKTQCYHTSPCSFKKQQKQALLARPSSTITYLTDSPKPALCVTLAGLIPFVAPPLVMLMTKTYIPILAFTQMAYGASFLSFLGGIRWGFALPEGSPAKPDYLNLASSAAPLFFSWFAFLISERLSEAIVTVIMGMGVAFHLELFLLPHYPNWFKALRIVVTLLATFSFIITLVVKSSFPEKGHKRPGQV
UniProt O14787: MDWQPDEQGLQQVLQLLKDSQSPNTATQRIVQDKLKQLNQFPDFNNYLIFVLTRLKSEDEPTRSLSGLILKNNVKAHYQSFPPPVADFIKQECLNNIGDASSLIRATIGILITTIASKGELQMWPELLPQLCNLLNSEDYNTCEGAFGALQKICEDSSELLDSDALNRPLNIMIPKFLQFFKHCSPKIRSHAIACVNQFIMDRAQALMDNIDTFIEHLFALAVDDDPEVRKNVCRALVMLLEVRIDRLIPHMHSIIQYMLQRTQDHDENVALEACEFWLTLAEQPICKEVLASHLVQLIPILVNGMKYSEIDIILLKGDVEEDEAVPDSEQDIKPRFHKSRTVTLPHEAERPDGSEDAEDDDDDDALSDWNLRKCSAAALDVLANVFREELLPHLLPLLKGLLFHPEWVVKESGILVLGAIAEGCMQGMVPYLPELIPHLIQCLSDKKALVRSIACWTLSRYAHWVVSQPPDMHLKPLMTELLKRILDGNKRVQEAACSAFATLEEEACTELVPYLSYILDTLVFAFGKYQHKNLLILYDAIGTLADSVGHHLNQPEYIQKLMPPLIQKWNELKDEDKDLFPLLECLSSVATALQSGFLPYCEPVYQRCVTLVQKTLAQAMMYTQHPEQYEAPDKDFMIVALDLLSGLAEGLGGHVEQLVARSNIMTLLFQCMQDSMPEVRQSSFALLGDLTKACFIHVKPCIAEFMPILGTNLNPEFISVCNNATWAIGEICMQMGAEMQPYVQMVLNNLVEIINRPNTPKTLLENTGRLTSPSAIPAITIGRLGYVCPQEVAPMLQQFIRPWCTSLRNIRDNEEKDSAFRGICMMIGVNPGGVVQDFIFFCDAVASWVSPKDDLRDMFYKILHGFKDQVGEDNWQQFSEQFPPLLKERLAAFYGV
UniProt Q9Y320, whole entry, looked up: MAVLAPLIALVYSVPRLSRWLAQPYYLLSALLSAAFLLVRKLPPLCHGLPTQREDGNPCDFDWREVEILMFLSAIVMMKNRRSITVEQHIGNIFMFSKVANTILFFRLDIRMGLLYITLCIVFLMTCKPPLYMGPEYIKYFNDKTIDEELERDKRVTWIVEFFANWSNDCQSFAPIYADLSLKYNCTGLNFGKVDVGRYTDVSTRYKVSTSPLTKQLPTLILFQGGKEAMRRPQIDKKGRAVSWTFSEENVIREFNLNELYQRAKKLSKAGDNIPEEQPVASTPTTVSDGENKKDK
UniProt P63313: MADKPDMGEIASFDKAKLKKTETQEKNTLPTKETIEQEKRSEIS
UniProt P62995: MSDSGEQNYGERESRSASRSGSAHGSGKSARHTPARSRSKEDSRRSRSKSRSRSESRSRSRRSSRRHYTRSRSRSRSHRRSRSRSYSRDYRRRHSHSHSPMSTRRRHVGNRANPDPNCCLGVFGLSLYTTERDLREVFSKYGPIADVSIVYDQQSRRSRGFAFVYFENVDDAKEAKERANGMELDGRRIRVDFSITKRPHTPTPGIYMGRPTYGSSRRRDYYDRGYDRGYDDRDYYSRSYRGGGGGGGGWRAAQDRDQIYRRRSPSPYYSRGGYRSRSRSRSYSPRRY
UniProt Q0P6H9: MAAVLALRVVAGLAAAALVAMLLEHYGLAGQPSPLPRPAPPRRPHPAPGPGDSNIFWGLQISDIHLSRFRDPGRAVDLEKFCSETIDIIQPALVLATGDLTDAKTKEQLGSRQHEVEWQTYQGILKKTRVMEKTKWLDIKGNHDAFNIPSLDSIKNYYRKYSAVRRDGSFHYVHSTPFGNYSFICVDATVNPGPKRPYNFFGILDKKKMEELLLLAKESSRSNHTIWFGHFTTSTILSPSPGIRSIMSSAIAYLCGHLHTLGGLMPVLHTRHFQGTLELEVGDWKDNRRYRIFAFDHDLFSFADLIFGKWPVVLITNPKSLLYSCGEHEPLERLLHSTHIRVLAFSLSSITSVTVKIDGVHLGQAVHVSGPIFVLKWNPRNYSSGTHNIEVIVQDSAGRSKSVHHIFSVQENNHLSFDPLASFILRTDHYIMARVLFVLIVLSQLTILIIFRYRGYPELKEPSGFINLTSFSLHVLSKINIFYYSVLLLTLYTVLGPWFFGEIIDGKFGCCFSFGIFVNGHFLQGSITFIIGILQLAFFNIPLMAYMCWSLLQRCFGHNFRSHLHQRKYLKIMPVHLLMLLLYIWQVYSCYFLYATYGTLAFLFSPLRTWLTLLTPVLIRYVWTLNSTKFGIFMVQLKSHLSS
UniProt Q15628: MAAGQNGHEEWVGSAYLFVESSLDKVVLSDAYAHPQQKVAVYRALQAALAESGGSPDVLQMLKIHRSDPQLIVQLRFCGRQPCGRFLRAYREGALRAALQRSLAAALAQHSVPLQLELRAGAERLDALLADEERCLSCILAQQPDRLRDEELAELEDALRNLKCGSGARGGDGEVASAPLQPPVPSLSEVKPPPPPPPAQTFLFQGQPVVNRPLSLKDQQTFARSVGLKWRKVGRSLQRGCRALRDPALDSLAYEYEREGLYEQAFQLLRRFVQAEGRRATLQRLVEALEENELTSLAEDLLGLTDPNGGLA

What was measured:
Assay in all cases: log2 fold change, soluble protein after heating vs DMSO (PISA); higher = thermal stabilisation; K562 lysate, 10 uM; active = over 0.2 and 3.5 SD of the protein, either way, in both replicates (recomputed)
[1] = compound: CCCS(=O)(=O)Nc1ccc(F)c(C(=O)c2c[nH]c3ncc(-c4ccc(Cl)cc4)cc23)c1F [vemurafenib]
Outline: (§1)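 Thermal stability, expressed as log-two fold change relative to solvent controls, is given from duplicates. Crude K562 extract in PBS pH 7.4 with 1 mM MgCl2, at 1 mg/mL protein, was treated with 10 μM compound for 30 min and heated in aliquots for 3 min across 48°C-58°C. After pooling, adjustment to 0.5% NP-40 at 4°C and centrifugation at 21,000xg for 90 min, supernatant protein was measured by TMTpro 16plex LC-MS/MS with channel sums equalised.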

[2] = compound: CCCS(=O)(=O)Nc1ccc(F)c(C(=O)c2c[nH]c3ncc(Cl)cc23)c1F
Outline: as §1

[3] = compound: CCN(CCCOc1ccc2c(Nc3cc(CC(=O)Nc4cccc(F)c4)[nH]n3)ncnc2c1)CCOP(=O)(O)O [barasertib]
Outline: as §1

[4] = compound: CC[C@@H]1C(=O)N(C)c2cnc(Nc3ccc(C(=O)NC4CCN(C)CC4)cc3OC)nc2N1C1CCCC1
Outline: as §1

[5] = compound: CC[C@@H]1C(=O)N(C)c2cnc(Nc3ccc(C(=O)N[C@H]4CC[C@H](N5CCN(CC6CC6)CC5)CC4)cc3OC)nc2N1C(C)C [volasertib]
Outline: as §1

[6] = compound: CCn1c(C(=O)N(C2CC2)C2CC2)cc2c3c(ncn3C)c(Nc3cc(C)n(C)n3)nc21
Outline: as §1

[7] = compound: CCn1cc(-c2ccnc3[nH]c(-c4cccc(CN(C)C)c4)cc23)c(-c2ccc(NC(=O)N(C)C)cc2)n1
Outline: as §1

[8] = compound: CN1CCC(CNc2ccc3ncc(-c4cccc(OC(F)(F)F)c4)n3n2)CC1
Outline: as §1

[9] = compound: CN1CCN(CCOc2cc(OC3CCOCC3)c3c(Nc4c(Cl)ccc5c4OCO5)ncnc3c2)CC1 [saracatinib]
Outline: as §1

[10] = compound: CN1CCN(c2nc(C3=C(c4c[nH]c5ccccc45)C(=O)NC3=O)c3ccccc3n2)CC1 [sotrastaurin]
Outline: as §1

[11] = compound: CN1CC[C@H](c2c(O)cc(O)c3c(=O)cc(-c4ccccc4Cl)oc23)[C@H](O)C1 [alvocidib]
Outline: as §1

[12] = compound: CN1CCc2c(c3ccccc3n2Cc2ccc(C(=O)NO)cc2)C1 [Tubastatin A]
Outline: as §1

[13] = compound: CNC(=O)C1=CC=CC=C1NC2=NC(=NC=C2Cl)NC3=C(C=C(C=C3)N4CCOCC4)OC
Outline: as §1

[14] = compound: CNC(=O)c1ccc(Nc2ncc(C(F)(F)F)c(NCc3nccnc3N(C)S(C)(=O)=O)n2)cc1 [defactinib]
Outline: as §1

[15] = compound: CNc1nc(-c2ccc3c(N)n[nH]c3c2)cc(N2C[C@@H](C(=O)NC3CCCCC3)CC[C@H]2C)n1
Outline: as §1

[16] = compound: COC(=O)N[C@@H](C)CNc1nccc(-c2cn(C(C)C)nc2-c2cc(Cl)cc(NS(C)(=O)=O)c2F)n1 [encorafenib]
Outline: as §1

[17] = compound: COC(=O)[C@H](CCSC)NC(=O)C1=C(C=C(C=C1)NC[C@H](CS)N)C2=CC=CC=C2
Outline: as §1

[18] = compound: COc1cc(Nc2ncc3c(n2)-c2ccc(Cl)cc2C(c2c(F)cccc2OC)=NC3)ccc1C(=O)O [alisertib]
Outline: as §1

[19] = compound: COc1cc2nc(-c3cc(F)ccc3O)nc(N[C@@H]3CNC[C@H]3C(C)(C)O)c2cc1OC
Outline: as §1

[20] = compound: COc1cc2ncnc(Nc3ccc(F)c(Cl)c3)c2cc1OCCCN1CCOCC1 [gefitinib]
Outline: as §1

| Target | log2 fold change [1] | log2 fold change [2] | log2 fold change [3] | log2 fold change [4] | log2 fold change [5] | log2 fold change [6] | log2 fold change [7] | log2 fold change [8] | log2 fold change [9] | log2 fold change [10] | log2 fold change [11] | log2 fold change [12] | log2 fold change [13] | log2 fold change [14] | log2 fold change [15] | log2 fold change [16] | log2 fold change [17] | log2 fold change [18] | log2 fold change [19] | log2 fold change [20] |
| --- | --- | --- | --- | --- | --- | --- | --- | --- | --- | --- | --- | --- | --- | --- | --- | --- | --- | --- | --- | --- |
| TMEM33 (UniProt P57088) | inactive: -0.004 | inactive: 0.001 | inactive: 0.024 | inactive: 0 | inactive: 0.031 | inactive: -0.042 | inactive: -0.063 | inactive: 0.034 | inactive: -0.019 | inactive: 0.017 | inactive: 0.02 | inactive: 0.034 | inactive: 0.047 | inactive: -0.021 | inactive: -0.03 | inactive: -0.026 | inactive: 0.013 | inactive: -0.025 | inactive: 0.018 | inactive: 0.02 |
| TOPBP1 (UniProt Q92547) | inactive: 0.024 | inactive: -0.08 | inactive: 0.018 | inactive: 0.012 | inactive: -0.079 | inactive: -0.029 | active: 0.305 | inactive: -0.071 | inactive: -0.003 | inactive: 0.02 | inactive: 0.024 | inactive: -0.067 | inactive: 0.033 | inactive: 0.047 | inactive: 0.01 | inactive: -0.024 | inactive: 0.108 | inactive: -0.039 | inactive: 0.034 | inactive: 0.008 |
| TPRKB (UniProt Q9Y3C4) | inactive: -0.001 | inactive: 0.028 | inactive: 0.063 | inactive: -0.036 | inactive: -0.019 | inactive: -0.013 | inactive: -0.079 | inactive: -0.002 | inactive: -0.019 | inactive: -0.012 | inactive: -0.024 | inactive: 0.03 | inactive: -0.043 | inactive: 0.07 | inactive: 0.004 | inactive: 0.055 | inactive: 0.057 | inactive: -0.003 | inactive: 0.024 | inactive: 0.025 |
| TMX1 (UniProt Q9H3N1) | inactive: -0.009 | inactive: -0.011 | inactive: -0.008 | inactive: -0.013 | inactive: 0.036 | inactive: 0.023 | inactive: -0.051 | inactive: 0.023 | inactive: -0.029 | inactive: 0.011 | inactive: 0.002 | inactive: 0.01 | inactive: -0.018 | inactive: 0.02 | inactive: -0.001 | inactive: 0.032 | inactive: -0.022 | inactive: 0.017 | inactive: -0.005 | inactive: -0.005 |
| TP53RK (UniProt Q96S44) | inactive: -0.018 | inactive: 0.047 | inactive: 0 | inactive: -0.058 | inactive: -0.002 | inactive: 0.013 | inactive: 0.025 | inactive: -0.039 | inactive: -0.049 | inactive: -0.023 | inactive: -0.012 | inactive: 0.054 | inactive: -0.037 | inactive: 0.019 | inactive: -0.026 | inactive: 0.028 | inactive: 0.025 | inactive: 0.001 | inactive: 0.002 | inactive: -0.042 |
| TOMM40 (UniProt O96008) | inactive: 0.004 | inactive: 0.015 | inactive: -0.026 | inactive: 0.021 | inactive: 0.017 | inactive: -0.023 | inactive: -0.034 | inactive: 0.062 | inactive: 0.015 | inactive: -0.025 | inactive: -0.03 | inactive: 0.045 | inactive: -0.012 | inactive: 0.011 | inactive: 0.022 | inactive: 0.011 | inactive: -0.01 | inactive: -0.012 | inactive: 0.025 | inactive: 0 |
| TOMM7 (UniProt Q9P0U1) | inactive: 0 | inactive: 0.013 | inactive: 0.042 | inactive: 0.056 | inactive: 0.034 | inactive: -0.061 | inactive: -0.091 | inactive: -0.049 | inactive: -0.002 | inactive: -0.13 | inactive: -0.031 | inactive: 0.128 | inactive: 0.073 | inactive: 0.024 | inactive: 0.046 | inactive: 0.019 | inactive: -0.016 | inactive: -0.004 | inactive: 0.019 | inactive: -0.119 |
| TMEM65 (UniProt Q6PI78) | inactive: -0.042 | inactive: 0.059 | inactive: 0.103 | inactive: -0.096 | inactive: -0.056 | inactive: -0.009 | inactive: -0.045 | inactive: -0.002 | inactive: -0.052 | inactive: -0.02 | inactive: -0.02 | inactive: 0.09 | inactive: 0.026 | inactive: 0.05 | inactive: 0.067 | inactive: 0.177 | inactive: -0.003 | inactive: 0.148 | inactive: -0.047 | inactive: -0.043 |
| TPP2 (UniProt Q5VZU9) | inactive: 0.003 | inactive: 0.061 | inactive: -0.002 | inactive: 0.014 | inactive: 0.003 | inactive: -0.005 | inactive: -0.147 | inactive: 0.088 | inactive: -0.022 | inactive: 0.044 | inactive: -0.099 | inactive: -0.121 | inactive: 0.092 | inactive: 0.062 | inactive: 0.068 | inactive: -0.076 | inactive: 0.058 | inactive: 0.006 | inactive: 0.076 | inactive: 0.011 |
| TMEM69 (UniProt Q5SWH9) | inactive: 0.095 | inactive: -0.02 | inactive: -0.196 | inactive: -0.035 | inactive: 0.019 | inactive: -0.063 | inactive: -0.225 | inactive: 0.108 | inactive: -0.008 | inactive: 0.002 | inactive: -0.052 | inactive: -0.056 | inactive: 0.051 | inactive: 0.083 | inactive: 0.048 | inactive: -0.03 | inactive: 0.208 | inactive: -0.028 | inactive: 0 | inactive: 0.054 |
| TNPO2 (UniProt O14787) | inactive: 0.009 | inactive: 0.027 | inactive: -0.022 | inactive: -0.06 | inactive: -0.001 | inactive: -0.002 | inactive: 0.098 | inactive: -0.02 | inactive: -0.008 | inactive: 0.017 | inactive: -0.01 | inactive: -0.069 | inactive: 0.012 | inactive: 0.001 | inactive: 0.053 | inactive: 0 | inactive: 0.039 | inactive: -0.003 | inactive: 0.004 | inactive: -0.003 |
| TMX2 (UniProt Q9Y320) | inactive: -0.027 | inactive: 0.021 | inactive: -0.021 | inactive: -0.034 | inactive: 0.002 | inactive: -0.002 | inactive: 0.013 | inactive: 0.007 | inactive: -0.024 | inactive: -0.079 | inactive: 0 | inactive: 0.013 | inactive: -0.043 | inactive: -0.015 | inactive: -0.012 | inactive: 0.054 | inactive: -0.028 | inactive: -0.021 | inactive: -0.01 | inactive: -0.011 |
| TMSB10 (UniProt P63313) | inactive: 0.015 | inactive: -0.149 | inactive: 0.14 | inactive: 0.03 | inactive: 0.09 | inactive: 0.051 | inactive: 0.096 | inactive: -0.138 | inactive: -0.148 | inactive: -0.078 | inactive: 0.242 | inactive: 0.122 | inactive: 0.02 | inactive: 0.042 | inactive: 0.067 | inactive: -0.038 | inactive: -0.02 | inactive: -0.012 | inactive: -0.104 | inactive: -0.189 |
| TRA2B (UniProt P62995) | inactive: 0.042 | inactive: 0.004 | inactive: -0.01 | inactive: 0.015 | inactive: -0.015 | inactive: -0.008 | inactive: 0.008 | inactive: -0.004 | inactive: -0.049 | inactive: 0.027 | inactive: 0 | inactive: 0.001 | inactive: 0.02 | inactive: -0.067 | inactive: 0.038 | inactive: 0.056 | inactive: 0.055 | inactive: -0.007 | inactive: -0.001 | inactive: 0.013 |
| TMEM62 (UniProt Q0P6H9) | inactive: 0.018 | inactive: 0.025 | inactive: 0.058 | inactive: -0.01 | inactive: 0.023 | inactive: -0.072 | inactive: -0.083 | inactive: 0.21 | inactive: 0.076 | inactive: 0.012 | inactive: 0 | inactive: 0.029 | inactive: 0.052 | inactive: 0.033 | inactive: 0.138 | inactive: -0.008 | inactive: -0.012 | inactive: 0.01 | inactive: -0.09 | inactive: -0.105 |
| TRADD (UniProt Q15628) | active: -0.611 | inactive: 0.052 | inactive: -0.002 | inactive: 0.07 | inactive: -0.023 | inactive: 0.065 | inactive: 0.014 | inactive: 0.001 | inactive: 0.011 | inactive: -0.023 | inactive: -0.029 | inactive: -0.066 | inactive: 0.021 | inactive: -0.092 | inactive: 0.021 | inactive: -0.012 | inactive: -0.241 | inactive: 0.009 | inactive: 0.004 | inactive: -0.03 |

Single entries from above.
Under log2 fold change [17], TOPBP1 (UniProt Q92547) has inactive: 0.108
Under log2 fold change [6], TNPO2 (UniProt O14787) has inactive: -0.002
